Results are given in words; binding and its absence hold for the method and conditions named. Binding seen in cells or lysates may run through a third protein.
What was measured:
[1] = molecular target: Cyclin A2 Triple (M200A, L204A, W207A), C-terminally fused to 3 Flag tags (mouse) (UniProt P51943); test: co-IP; anti-Flag M2 affinity gel on extracts of NIH3T3 cells transfected with 3xFlag Cyclin A2 alleles; endogenous partners detected by Western blot; densitometry (ImageQuantTL) normalised to immunoprecipitated Cyclin A2, percent of WT; repeated 5 times
[2] = molecular target: Cyclin A2 E180A, C-terminally fused to 3 Flag tags (mouse) (UniProt P51943); test: as above
[3] = molecular target: Cyclin A2 Triple (M200A, L204A, W207A), C-terminally fused to 3 Flag tags (mouse) (UniProt P51943); test: co-IP; anti-Flag M2 affinity gel on extracts of human HEK 293 cells transfected with mouse 3xFlag Cyclin A2 alleles; endogenous partners detected by Western blot; densitometry (ImageQuantTL) normalised to immunoprecipitated Cyclin A2, percent of WT; repeated 3 times

By UniProt entry, the sequences of proteins in these tests, tags left out. Where a name states a change or a piece, a line headed by the entry shows the natural chain unless it says otherwise.
UniProt P51943: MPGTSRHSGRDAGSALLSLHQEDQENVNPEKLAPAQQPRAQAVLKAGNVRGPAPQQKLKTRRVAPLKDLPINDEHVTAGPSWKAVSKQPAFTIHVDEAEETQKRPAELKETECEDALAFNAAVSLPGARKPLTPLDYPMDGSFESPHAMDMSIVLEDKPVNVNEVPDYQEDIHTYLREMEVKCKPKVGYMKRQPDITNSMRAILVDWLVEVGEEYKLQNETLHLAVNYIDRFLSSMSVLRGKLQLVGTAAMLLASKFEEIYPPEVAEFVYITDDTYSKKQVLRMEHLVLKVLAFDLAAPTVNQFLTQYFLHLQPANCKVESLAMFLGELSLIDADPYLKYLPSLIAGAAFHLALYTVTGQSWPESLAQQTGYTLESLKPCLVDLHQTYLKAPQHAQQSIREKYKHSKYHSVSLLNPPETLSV
UniProt P11440: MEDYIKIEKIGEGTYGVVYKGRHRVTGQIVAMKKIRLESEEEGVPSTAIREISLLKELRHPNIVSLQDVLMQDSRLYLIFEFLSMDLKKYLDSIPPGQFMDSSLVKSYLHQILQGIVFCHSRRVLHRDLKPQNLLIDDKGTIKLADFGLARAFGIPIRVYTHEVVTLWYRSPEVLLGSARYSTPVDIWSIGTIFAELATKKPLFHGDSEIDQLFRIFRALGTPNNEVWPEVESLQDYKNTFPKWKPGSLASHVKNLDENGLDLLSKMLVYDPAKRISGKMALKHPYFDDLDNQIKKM
UniProt P38936: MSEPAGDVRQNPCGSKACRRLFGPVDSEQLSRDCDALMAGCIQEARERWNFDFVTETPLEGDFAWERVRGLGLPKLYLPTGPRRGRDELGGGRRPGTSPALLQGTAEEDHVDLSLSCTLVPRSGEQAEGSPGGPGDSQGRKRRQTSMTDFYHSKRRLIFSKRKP
UniProt P46414: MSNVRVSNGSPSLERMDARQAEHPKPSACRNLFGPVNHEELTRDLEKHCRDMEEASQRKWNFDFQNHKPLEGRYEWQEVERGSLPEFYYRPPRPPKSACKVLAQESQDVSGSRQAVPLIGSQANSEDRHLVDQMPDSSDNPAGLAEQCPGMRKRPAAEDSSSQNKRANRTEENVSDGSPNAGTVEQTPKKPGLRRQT

binding [1] | binding [2] | binding [3] | Substance
no binding | no binding |  | CDK1 (endogenous, NIH3T3) (from UniProt P11440 1-297) (enzyme)
 |  | no binding | p21 (endogenous, HEK 293) (from UniProt P38936 1-164)
no binding | no binding |  | p27 (endogenous, NIH3T3) (from UniProt P46414 1-197)

Reference: PMC3145769
